Assay [1] deals with gC1q-R (receptor for the globular heads of C1q), highly purified recombinant, full-length (human) (UniProt Q07021). Kind of assay: binding of gC1q-R to peptides, FIG. 5 panel B.
For assay [2] the target is unchanged. Kind of assay: competitive ELISA: HKH20 in solution against coated HKH20 for biotinylated gC1q-R. In general terms: ELISA stands for enzyme-linked immunosorbent assay.
Assay [3] shares this target. Kind of assay: competitive ELISA, FIG. 5 panel A: HKH20 at 10 or 50 µg/ml in solution, biotinylated gC1q-R, coated HKH20.
For assay [4] the target is unchanged. Kind of assay: binding of gC1q-R to 10-residue overlapping peptides from HKH20.

By UniProt entry, the sequences of proteins in these tests, tags left out. Residues count along the entry.
UniProt Q07021, residues 74-282: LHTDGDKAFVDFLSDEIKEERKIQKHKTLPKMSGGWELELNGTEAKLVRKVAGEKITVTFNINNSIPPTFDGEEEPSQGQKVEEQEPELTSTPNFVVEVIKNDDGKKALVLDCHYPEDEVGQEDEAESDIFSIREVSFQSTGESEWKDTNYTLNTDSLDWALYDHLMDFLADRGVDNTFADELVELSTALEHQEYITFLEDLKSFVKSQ

These are yes or no findings as the source states them, for the method shown. Some entries that bind do so weakly or less than the wild type.

Turning to HKHGHGHGKHKNKGKKNGKH [HKH20 (HK peptide, residues 479-498)], the binding result in assay [1], in assay [2] and in assay [3] was “binds” in each case.

Take HKHGHGHGKH [HKH-10-1 (HK residues 479-488)]: the binding entry in assay [1] and in assay [4] was “binds” each time.

For the origin of these results see patent US20120082676A1 (RESEARCH FOUNDATION OF STATE UNIVERSITY OF NEW YORK, published 2012).
